Results deposited as PubChem BioAssay AID686943 (Drosophila RNAi Screening Center, 2013).

Screen: 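Knockdowns that increase or decrease active ERK after insulin receptor stimulation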 (primary screen)
Cells: Drosophila S2R+ haemocyte-like cells expressing YFP-tagged ERK (Rolled)
Reagents: long dsRNA against Drosophila genes
Conditions: insulin stimulation versus unstimulated cells; dose and duration not given
Measurement: 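Antibody staining for doubly phosphorylated ERK divided by ERK-YFP signal, as plate z-scores, in insulin-treated and untreated cells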
Direction: replicate 1, z-score of dpERK with insulin: higher = more active ERK per ERK-YFP after insulin
In all, the deposit lists about 23,000 reagents; shown is a random part of those that have a named target and a result. 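Extra replicates exist only for a retested subset of genes; insulin dose and duration not given; both raised and lowered dpERK matter.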 Names joined by + are all predicted targets of the reagent. Further read-outs or replicates are left out here. Not stated in the record: the amount of reagent, the time to read-out.

replicate 1, z-score of dpERK with insulin, by gene and reagent
Cisd2 (GeneID 43459): DRSC14904 0.97
Sf3a1 (GeneID 42048): DRSC15166 4.58
CG13658 (GeneID 43055): DRSC14659 0.38
CG32563 (GeneID 32706): DRSC19934 -0.35
ppk16 (GeneID 3885612): DRSC02736 0.91
tsr (GeneID 37841): DRSC04718 1.33
mRpL9 (GeneID 41859): DRSC15678 -0.21
CG3517 (GeneID 42324): DRSC15492 -0.21
ru (GeneID 44856): DRSC08258 0.15
lncRNA:CR42862 (GeneID 10178964): DRSC08348 -0.6
CG5151 (GeneID 39772): DRSC10487 -2.26
CG14006 (GeneID 33802): DRSC02338 0.62
tup (GeneID 35147): DRSC03627 -0.22
Cog6 (GeneID 35953): DRSC06806 0.54
CG30192 (GeneID 246510): DRSC03977 -0.19
Gr64b + Gr64c: DRSC08444 0.37; DRSC08445 -0.04
Cyt-c-d (GeneID 34995): DRSC03309 -0.18
CG9171 (GeneID 33807): DRSC03152 -0.14; DRSC21813 -3.31
S6kII (GeneID 33139): DRSC20645 0.54
eIF3g1 (GeneID 31243): DRSC18427 -1.63
CG6028 (GeneID 42589): DRSC15951 0.19
CG34283 (GeneID 5740817): DRSC13313 -0.17
CG3092 (GeneID 37682): DRSC04336 -0.28
Agpat4 (GeneID 39819): DRSC10446 -0.48
RhoGAP1A (GeneID 5740235): DRSC20649 -0.19; DRSC20651 -0.82
Cyp4s3 (GeneID 32444): DRSC20241 1.57; DRSC22340 0.46
CG14736 (GeneID 41466): DRSC14956 0.28
saturn (GeneID 317880): DRSC09303 -0.09
CG3253 (GeneID 37861): DRSC04350 0.31
CG33460 (GeneID 3885588): DRSC05570 -0.3
CG12511 (GeneID 33797): DRSC02171 -0.72
CG12506 (GeneID 33249): DRSC00347 -0.82
CtsK2 (GeneID 36973): DRSC06897 0.16
U4-U6-60K (GeneID 39955): DRSC10624 0.88
CG6788 (GeneID 32773): DRSC20007 0.46
Nap1 (GeneID 37798): DRSC04626 0.34
CG13531 (GeneID 37627): DRSC04173 1.6
Pnn (GeneID 41185): DRSC16415 1.21
CG13337 (GeneID 36518): DRSC06371 -0.34
Zip48C (GeneID 36273): DRSC06314 -0.22
MESK2 + CG10494: DRSC04259 0.14
Mob4 (GeneID 35576): DRSC04993 -0.81
Atpalpha (GeneID 48971): DRSC14119 0.01
CG15547 (GeneID 43661): DRSC15085 0.48
mino (GeneID 43350): DRSC14132 1.69
spn-A (GeneID 43577): DRSC16812 -0.01
TotX (GeneID 117460): DRSC22206 -1.28
MFS9 (GeneID 42426): DRSC15560 -0.09
CG15891 + CG15892: DRSC18095 0.67; DRSC18096 0.08
CG34159 (GeneID 34353): DRSC02885 -1.19
CG2577 (GeneID 32188): DRSC19863 -0.2
SerRS (GeneID 33518): DRSC00496 -0.02
CG42824 (GeneID 10178873): DRSC13230 0.87
CG32450 (GeneID 318034): DRSC11546 -0.38
CG42397 (GeneID 8673976): DRSC09147 0.5
Shmt (GeneID 31524): DRSC18264 0.4
fbp (GeneID 35265): DRSC02077 -0.12
Cep89 (GeneID 36733): DRSC07110 -0.1
ND-23 (GeneID 44207): DRSC15526 0.15
Tret1-1 (GeneID 36248): DRSC07046 0.09; DRSC07048 -0.01
CG43318 (GeneID 12798422): DRSC14999 0.89
CG31415 (GeneID 318722): DRSC22409 1.36
CG17778 (GeneID 30996): DRSC18504 -1.47
Vti1a (GeneID 38085): DRSC08563 1.8
ImpE3 (GeneID 48239): DRSC16716 1.41
bap (GeneID 42537): DRSC16908 0.52
uif (GeneID 33983): DRSC00963 2.63; DRSC03427 0.58

Reformatted: 7 of the entries above.
{"gene": "Agpat4 (GeneID 39819)", "DRSC id": "DRSC10446", "replicate 1, z-score of dpERK with insulin": -0.48}
{"gene": "RhoGAP1A (GeneID 5740235)", "DRSC id": "DRSC20649", "replicate 1, z-score of dpERK with insulin": -0.19}
{"gene": "RhoGAP1A (GeneID 5740235)", "DRSC id": "DRSC20651", "replicate 1, z-score of dpERK with insulin": -0.82}
{"gene": "Cyp4s3 (GeneID 32444)", "DRSC id": "DRSC20241", "replicate 1, z-score of dpERK with insulin": 1.57}
{"gene": "Cyp4s3 (GeneID 32444)", "DRSC id": "DRSC22340", "replicate 1, z-score of dpERK with insulin": 0.46}
{"gene": "CG14736 (GeneID 41466)", "DRSC id": "DRSC14956", "replicate 1, z-score of dpERK with insulin": 0.28}
{"gene": "saturn (GeneID 317880)", "DRSC id": "DRSC09303", "replicate 1, z-score of dpERK with insulin": -0.09}
